Source: PubChem BioAssay AID2685 (National Center for Advancing Translational Sciences (NCATS), 2010)
The campaign covered roughly 320,000 compounds. About 2,100 (0.66%) were called active. The shares of active, inactive and inconclusive entries below differ from those in the screen. Calls follow the shape of the dose curve; as a rule, active = well fitted inhibition curve with a large enough effect in the signal ratio, with a control signal flat (not every such curve was filed as active); inconclusive = small, poorly fitted or top-dose-only effect, or effect the other way, or a change in a side signal; inactive = flat fitted curve, though single readings scatter; the % refers to the signal ratio. Where the call is inconclusive, the potency comes from a doubtful curve fit.

Test: qHTS Assay for Lipid Storage Modulators in Drosophila S3 Cells
Settings: BODIPY lipid droplet fluorescence, 18-24 h, cells fed with added oleic acid; lipid storage change, negative = inhibition: at 46.1 µM (top of the series) unless noted
Procedure, shortened: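 Drosophila S3 cells got compounds at several concentrations plus oleic acid (400 uM solution). Laser-scanning cytometry with 488 nm excitation read lipid droplets at 500-530 nm and cells at 575-640 nm. Percent activity was relative to 20 uM Triacsin C.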
% is scaled to controls: 0 for no effect and ±100 for the full control effect; potency is read from the fitted curve at half-maximal effect.

SMILES	lipid storage change, negative = inhibition	Potency
O=C(NNC(=O)C1CCCC1)c1ccc(F)cc1	inconclusive: 66.6%	–
CCOc1ccc(Cn2c(=O)sc3ccccc32)cc1OC	inconclusive: 14.4%	–
COc1ccccc1NC(=O)NC(=O)N(C(C)C)S(C)(=O)=O	–	inconclusive: 14.6 µM [rising, single point]
Cc1nnsc1-c1nnc(SCC(=O)c2ccccc2)n1C1CC1	inconclusive: 4.33%	–
COC(=O)CSc1snnc1-c1ccc(Cl)cc1Cl	inconclusive: 123%	–
O=C1CSC(c2cccs2)N1c1ccccc1 (configuration not stated)	–	inconclusive: 25.9 µM [falling, single point]
Cc1ccc(C(=O)NN=C2CCCCCC2)s1	–	inconclusive: 16.4 µM [activator, partial curve]
Cc1ccc(C(=O)NCCNC(=O)c2ccccc2)cc1	inconclusive: -1.2%	–
CC(C)CNc1nc(N)c([N+](=O)[O-])c(NCC2CCCO2)n1 (configuration not stated)	–	inconclusive: 11.6 µM [activator, partial curve]
Cc1c(OCC(=O)NCC2CCC(C(=O)NCCCO)CC2)ccc2c(-c3ccccc3)cc(=O)oc12 (configuration not stated)	inconclusive: 17.7%	–
CN1/C(=C/C=C(C#N)C#N)C(C)(C)c2ccccc21	–	active: 7.31 µM
CCN(CC)CCN(C(=O)c1cc2c(ccc3ccccc32)oc1=O)c1nc2cc3c(cc2s1)OCCO3	inconclusive: -93.3%	–
Cn1c(=O)c2c(nc(NN=C3CCCCC3)n2C)n(C)c1=O	inconclusive: 5.35%	–
CCc1c(C)[nH]n(-c2ccc(Oc3ccccc3)c(S(=O)(=O)O)c2)c1=O	inconclusive: -16.3%	–
COc1cc2c(cc1NC(=O)COC(=O)/C=C/c1ccc([N+](=O)[O-])cc1)oc1ccccc12	inconclusive: 13.2%	–
CCN(CC(=O)Nc1ccc(OC)cc1)C(=O)CSCC(=O)Nc1cc(C)on1	inconclusive: -61.8%	–
COc1cccc(N2C(=NC(=O)CCc3ccccc3)SC3CS(=O)(=O)CC32)c1 (configuration not stated)	inactive	–
COc1ccc(S(=O)(=O)Oc2ccc(C(=S)N3CCOCC3)cc2OC)cc1	inactive	–
C=CCOC(=O)/C(=C\c1ccccc1)NC(=O)c1ccco1	inconclusive: 14.7%	–
CC1=NC(C(F)(F)F)(C(F)(F)F)C(C#N)=C(C)N1	inconclusive: 7.58%	–
O=C(COc1ccccc1Cl)N(Cc1ccco1)C1CCS(=O)(=O)C1 (configuration not stated)	inconclusive: -1.13%	–

Part of the list above in order of formula weight, rising.
SMILES	lipid storage change, negative = inhibition	Potency
CN1/C(=C/C=C(C#N)C#N)C(C)(C)c2ccccc21	–	active: 7.31 µM
O=C1CSC(c2cccs2)N1c1ccccc1 (configuration not stated)	–	inconclusive: 25.9 µM [falling, single point]
Cc1nnsc1-c1nnc(SCC(=O)c2ccccc2)n1C1CC1	inconclusive: 4.33%	–
COc1ccc(S(=O)(=O)Oc2ccc(C(=S)N3CCOCC3)cc2OC)cc1	inactive	–
Cc1c(OCC(=O)NCC2CCC(C(=O)NCCCO)CC2)ccc2c(-c3ccccc3)cc(=O)oc12 (configuration not stated)	inconclusive: 17.7%	–

Next part:

SMILES	lipid storage change, negative = inhibition	Potency
O=C(c1ccc(Cl)cc1)N1CCN(c2ccnc3cc(Cl)ccc23)CC1	–	inconclusive: 0.517 µM [falling, full curve]
O=C1CN(S(=O)(=O)c2cc(Cl)ccc2Cl)CCN1	inconclusive: 98.3%	–
N#Cc1cccc(NC(=O)CN2C(=O)NC3(CCCCCC3)C2=O)c1	inconclusive: -19.3%	–
CC(=O)c1ccc(OCC(O)CN2CCN(CCO)CC2)cc1 (configuration not stated)	inconclusive: -2.67%	–
O=C(COC(=O)c1ccc(S(=O)(=O)N2CCCCC2)cc1)NCc1ccco1	inconclusive: -6.64%	–
CC(=O)Nc1ccc(CC(=O)O)cc1	inconclusive: 0.0545%	–
C=CCn1c(SCC(=O)N2CCOCC2)nc2sc(C)c(C)c2c1=O	inconclusive: -79.3%	–
O=C(CSCCO)Nc1cccc2ccccc12	inconclusive: -22.1%	–
O=C(COC(=O)C1CC1)Nc1c(Cl)cccc1C(F)(F)F	inconclusive	–
Cc1c(C)c2ccc(OCC(=O)N(C)C)c(C)c2oc1=O	–	inconclusive: 29.1 µM [activator, single point]
CCc1c(C)[nH]c2ccc(C)cc2c1=O	inconclusive: -33.2%	–
CCOc1ccccc1N(CC(=O)N1CCC(C)CC1)S(=O)(=O)c1ccc(C)cc1	–	inconclusive: 29.1 µM [falling, single point]
CCOC(=O)c1c(S(=O)(=O)N2c3ccccc3CC2C)c(C)n(C)c1C (configuration not stated)	inconclusive: -49.3%	–
COc1ccc(OCCn2cc(/C=C(\C#N)C(=O)NCc3ccco3)c3ccccc32)cc1	inconclusive: -47.2%	–
CC(=O)c1c(C)[nH]c(C(=O)OCC(=O)Nc2sc3c(c2C#N)CCC(C)C3)c1C (configuration not stated)	–	inconclusive: 18.4 µM [activator, single point]
CCOC(=O)c1sc(NCC2CCCO2)nc1C (configuration not stated)	inconclusive: 4.17%	–
CCNC(=S)N(CCc1c(C)[nH]c2ccc(Cl)cc12)Cc1cccnc1	inconclusive: -28.4%	–
C/C(=N\N1CCN(c2ccccc2)CC1)c1cccs1	inconclusive: 2.17%	–
COc1ccc(-n2ncc(C(C)NS(=O)(=O)c3ccc(C(C)=O)cc3)c2C)cc1 (configuration not stated)	inactive	–
CCOC(=O)c1c(C)[nH]c(C)c1C(=O)COC(=O)CCOc1ccccc1OC	–	inconclusive: 2.91 µM [activator, single point]
CCCS(=O)(=O)N1CCCC(C(=O)NCCCOCC)C1 (configuration not stated)	inconclusive: 12%	–

SMILES	lipid storage change, negative = inhibition	Potency
Brc1ccc(-c2nc(-c3cccnc3)no2)o1	inconclusive: 31.9%	–
O=c1c2c(n3cnnc3n1C1CCCCC1)-c1ccccc1CC21CCCCC1	inconclusive: 9.51%	–
OCCN1CCN(Cc2cc(Br)cc(Br)c2O)CC1	inconclusive: 21.7%	–
COc1cccc(NC(=O)CNC(=O)Cn2cnc3sc(C)c(C)c3c2=O)c1	–	inconclusive: 3.26 µM [activator, partial curve, poor fit]
O=C(CSCc1cccc(Cl)c1)N1CCN(Cc2ccc3c(c2)OCO3)CC1	inconclusive: 205%	–
N#Cc1cnc2c(-c3ccccc3)c(-c3ccccc3)nn2c1N	inconclusive: 75.6%	–
Cn1c(Cc2ccccc2)nnc1SCC(=O)N1CCN(c2ccccc2)CC1	inconclusive: 2.08%	–
CC(C)c1ccc(NC(=O)C[n+]2ccn(C3=C([O-])c4ccccc4C3=O)c2)cc1	inconclusive: 10.2%	–
COc1ccccc1/C=C1\SC(=S)N(CC(=O)NC2CCS(=O)(=O)C2)C1=O (configuration not stated)	inconclusive: 298%	–
COc1ccccc1C(=O)NC(C)c1cccc2ccccc12 (configuration not stated)	inconclusive: 82.1%	–
COc1ccc(N2CCN(CC(=O)c3ccccc3)CC2)cc1	inactive	–
Cc1ccc(C(=O)/C=C/c2c[nH]c3ccccc23)cc1	inconclusive: -68%	–
COCCc1nc2ccc(C(=O)N(C)Cc3cccc(-n4nc(C)cc4C)c3)cc2o1	inconclusive: 79.4%	–
Cc1ccccc1NC(=O)c1ccc2c(O)c(S(=O)(=O)c3ccccc3)c(=O)[nH]c2c1	inconclusive: -37.6%	–
Cc1cc(NC(=O)c2c(Br)cnn2C)no1	–	inconclusive: 23.1 µM [falling, single point]
CCc1ccc(S(=O)(=O)NC2CC(C)(C)NC(C)(C)C2)cc1	inconclusive: 61.7%	–
CC(=O)Oc1cccc(N2C(=O)C3C4C=CC(C4=C(C)C)C3C2=O)c1 (configuration not stated)	inconclusive: 53.1%	–
CC(C)Cc1nc(N2CCOCC2)c(C#N)c2c1CCC2	inconclusive: -26.9%	–
Nn1c(COc2ccc(Cl)cc2)nc2ccccc2c1=O	inconclusive: -39.2%	–
Cc1onc(-c2ccccc2)c1C(=O)c1ccccc1	inconclusive: 11.5%	–
Fc1ccc(CSc2ncnc3scc(-c4ccccc4)c23)cc1	–	inconclusive: 10.3 µM [activator, partial curve]

SMILES	lipid storage change, negative = inhibition	Potency
COCCNC(=S)Nc1ccc(N2CCCCC2)cc1	inconclusive: 14.6%	–
Cc1ccc(S(=O)(=O)n2c([N+](=O)[O-])cnc2C)cc1C	inconclusive: -4.49%	–
CCCN(CC(=O)Nc1ccccc1C)C(=O)Cc1n[nH]c(=O)c2ccccc12	–	inconclusive: 6.51 µM [falling, single point]
COc1ccc(COC(=O)C2=C(C)NC(=O)NC2c2cccc(Br)c2)cc1 (configuration not stated)	–	inconclusive: 20.6 µM [falling, single point]
CCOc1cc(/C=C2\SC(N3CCCC(C)C3)=NC2=O)ccc1O (configuration not stated)	inconclusive: -4.65%	–
O=C(CN1CCOCC1)Nc1ccc(NC(=O)c2ccccc2F)cc1	–	inconclusive: 25.9 µM [activator, partial curve]
c1ccc(-c2nnc3sc(CN4CCC5(CC4)OCCO5)cn23)cc1	–	inconclusive: 29.1 µM [activator, single point]
Cn1c(=O)c2c(nc(CN3CCOCC3)n2CCCO)n(C)c1=O	inconclusive: 10.2%	–
COc1ccc(S(=O)(=O)N2CCOCC2)cc1C(=O)NCc1ccccc1CN1CCCC1	–	inconclusive: 29.1 µM [activator, single point]
C=CC(c1ccccc1)C(C(=O)c1ccccc1)N(C)C (configuration not stated)	inconclusive: -16.3%	–
S=C(Nc1ccc(Br)cc1)N1CCN(c2ccccn2)CC1	inconclusive: 25.5%	–
O=C(c1ccc(C23CC4CC(CC(C4)C2)C3)o1)N1CCOCC1	–	inconclusive: 3.66 µM [falling, partial curve]
O=C(COc1ccc(Br)cc1)NCc1ccccn1	inconclusive: -4.34%	–
O=C(NNC(=O)c1ccc(Cl)c([N+](=O)[O-])c1)c1ccncc1	inconclusive: -27.8%	–
CCC1CCCCN1CCCNC(=O)Cn1c2ccccc2c2nc(=O)cc(C)n21 (configuration not stated)	inconclusive: 28.9%	–
CC(C)[C@H](N)c1nnc(SC/C=C/c2ccccc2)o1	inconclusive: -4.13%	–
Cc1[nH]nc2c1C(c1cccs1)C1=C(CCCC1=O)N2 (configuration not stated)	inconclusive: 62.4%	–
CCOc1ccccc1-c1cc(C(=O)Nc2ccc(C(=O)O)cc2)c2ccccc2n1	–	inconclusive: 0.82 µM [falling, single point]
OCC[C@@H]1C[C@H](O)[C@@H](O)[C@]2(OCc3ccccc32)O1	inconclusive: 30.5%	–
